The text below walks through data of publication doi:10.1101/377390.

Protein sequences, listed by entry. Tags and fused reporters are not part of them. Lines headed by an entry give the natural chain unless they say otherwise; changes in a name come on top.
UniProt Q23096: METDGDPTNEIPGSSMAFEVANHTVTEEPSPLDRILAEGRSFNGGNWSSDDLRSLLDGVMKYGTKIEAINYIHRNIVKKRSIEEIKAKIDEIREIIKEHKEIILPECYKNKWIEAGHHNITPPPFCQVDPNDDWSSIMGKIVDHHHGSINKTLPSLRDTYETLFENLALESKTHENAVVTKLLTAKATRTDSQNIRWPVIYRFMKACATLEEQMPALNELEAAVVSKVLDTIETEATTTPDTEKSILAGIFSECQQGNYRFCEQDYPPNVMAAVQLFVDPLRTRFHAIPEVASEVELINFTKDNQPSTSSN

No constants are given. Whether binding was seen depends on the method and setting. Binding calls can cover weak binding; strength is not graded here. Where a sequence is shown, tags or fusion partners need not be part of it.

Assay [1] has as its target T1, PRDE-1 (yeast two-hybrid fusion) (C. elegans) (UniProt O17828).
T1 sequence: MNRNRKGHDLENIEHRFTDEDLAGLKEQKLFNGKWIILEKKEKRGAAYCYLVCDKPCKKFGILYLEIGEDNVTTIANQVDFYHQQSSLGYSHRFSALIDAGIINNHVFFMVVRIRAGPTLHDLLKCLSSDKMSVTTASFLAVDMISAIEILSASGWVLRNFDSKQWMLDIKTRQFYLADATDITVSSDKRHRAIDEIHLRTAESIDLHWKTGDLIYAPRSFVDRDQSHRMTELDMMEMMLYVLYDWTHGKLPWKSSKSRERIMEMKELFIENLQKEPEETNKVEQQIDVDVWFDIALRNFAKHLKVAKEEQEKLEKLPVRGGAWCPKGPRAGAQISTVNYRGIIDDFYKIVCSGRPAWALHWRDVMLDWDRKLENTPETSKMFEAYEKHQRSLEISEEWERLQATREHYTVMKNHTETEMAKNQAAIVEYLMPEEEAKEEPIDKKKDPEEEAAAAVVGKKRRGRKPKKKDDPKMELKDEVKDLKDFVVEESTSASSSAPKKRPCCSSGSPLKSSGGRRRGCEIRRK
The experiment in a line: two-hybrid.

For assay [2], the target named is T2, SNPC-4 (yeast two-hybrid fusion) (C. elegans) (UniProt P91868).
T2 sequence: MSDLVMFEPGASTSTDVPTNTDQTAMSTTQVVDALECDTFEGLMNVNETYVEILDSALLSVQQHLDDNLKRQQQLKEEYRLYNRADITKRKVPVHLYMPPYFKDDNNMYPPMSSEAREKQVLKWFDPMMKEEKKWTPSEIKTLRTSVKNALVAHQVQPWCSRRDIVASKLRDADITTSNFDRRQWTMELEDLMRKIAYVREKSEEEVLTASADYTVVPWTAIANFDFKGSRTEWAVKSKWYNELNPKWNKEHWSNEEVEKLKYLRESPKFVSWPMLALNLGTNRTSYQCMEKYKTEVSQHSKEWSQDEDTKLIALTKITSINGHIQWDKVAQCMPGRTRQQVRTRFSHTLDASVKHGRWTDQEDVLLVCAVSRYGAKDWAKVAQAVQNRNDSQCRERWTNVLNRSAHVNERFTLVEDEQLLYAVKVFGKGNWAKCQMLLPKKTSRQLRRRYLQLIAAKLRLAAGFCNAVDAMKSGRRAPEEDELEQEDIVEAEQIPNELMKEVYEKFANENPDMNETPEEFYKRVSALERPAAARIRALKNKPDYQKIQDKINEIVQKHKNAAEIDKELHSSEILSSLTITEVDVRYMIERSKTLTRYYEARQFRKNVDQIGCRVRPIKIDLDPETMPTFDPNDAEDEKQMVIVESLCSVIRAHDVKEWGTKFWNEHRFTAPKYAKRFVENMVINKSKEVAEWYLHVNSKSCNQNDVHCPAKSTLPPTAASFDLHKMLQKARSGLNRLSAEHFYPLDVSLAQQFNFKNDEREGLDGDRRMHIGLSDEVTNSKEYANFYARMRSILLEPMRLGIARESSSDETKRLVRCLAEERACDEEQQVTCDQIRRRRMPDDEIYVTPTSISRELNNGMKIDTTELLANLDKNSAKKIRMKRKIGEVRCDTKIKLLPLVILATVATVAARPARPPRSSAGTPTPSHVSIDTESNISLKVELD
In words: two-hybrid.

As for “TOFU-4 (yeast two-hybrid fusion) (C. elegans)”, in assay [1], the binding result is reported as “binds”.

For “TOFU-5 (yeast two-hybrid fusion) (from UniProt Q23096)”, the binding result in assay [2] is listed as “binds”.
